From publication PMC8873433
These are yes or no findings as the source states them, for the method shown. Binding seen in cells or lysates may run through a third protein. Some entries that bind do so weakly or less than the wild type.

By UniProt entry, the sequences of proteins in these tests, tags left out.
UniProt Q4V8G6: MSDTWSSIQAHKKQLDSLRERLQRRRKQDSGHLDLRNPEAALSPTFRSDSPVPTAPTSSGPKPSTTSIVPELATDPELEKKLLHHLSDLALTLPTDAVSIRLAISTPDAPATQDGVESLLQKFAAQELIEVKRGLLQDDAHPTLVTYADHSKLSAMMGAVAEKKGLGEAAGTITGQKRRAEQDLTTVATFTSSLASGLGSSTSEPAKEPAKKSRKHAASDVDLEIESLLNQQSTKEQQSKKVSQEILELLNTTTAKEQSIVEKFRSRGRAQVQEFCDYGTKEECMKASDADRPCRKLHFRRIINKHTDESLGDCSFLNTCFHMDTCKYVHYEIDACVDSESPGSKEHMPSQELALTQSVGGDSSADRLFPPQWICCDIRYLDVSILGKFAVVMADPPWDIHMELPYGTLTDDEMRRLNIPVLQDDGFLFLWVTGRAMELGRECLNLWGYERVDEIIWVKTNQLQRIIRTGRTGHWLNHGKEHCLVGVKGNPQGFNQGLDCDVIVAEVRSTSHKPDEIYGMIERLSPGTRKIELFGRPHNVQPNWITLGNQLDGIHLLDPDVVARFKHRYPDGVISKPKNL

Biological target: Methyltransferase-like 3 (METTL3) (rat (endogenous in RN-sc)) (UniProt Q4V8G6)
Test: co-IP; RN-sc cell lysate incubated with anti-METTL3 antibody at 4 °C overnight, protein A/G agarose beads 2 h, western blot for DGCR8; with and without RNase

binding: binds
B1: DGCR8 (protein, UniProt D4A2G4 1-773)
chain: METYESPSPLPHEPTGEAMMENRACPFQVLPHEQSPPPPLQTSSDAEVMDVGSGGDGQSEPPADDPFNFYGASLLSKGSFSKGRLLIDPNCSGHSPRTARHAPAVRKFSPDLKLLKDVKISVSFTESCRSKDRKVLYTGVERSTRPECSQLLSPVCGDVHACPFGGSVGNGVGLGGESTDKKDEENELDQEKRVEYAVLDELEDFTDNLELDEEGTGGFTANAIVQRDRVDEEALNFSYEDDFDNDVDALLEEGLCAPKKRRMEEKYGGDSDHPSDGETSVQPMMTKIKTVLKSRGRPPTEPLPDGWIMTFHNSGVPVYLHRESRVVTWSRPYFLGTGSIRKHDPPLSSIPCLHYKKMKDNEEREQSCDLAPSGEVSPVKPLGRSAELDFPLEEPDSLGGDSGSLDEKDPLGAEAAAGALGQVRAKVEVCKDESVDLEEFRNYLEKRFDFEQVTVKKFRTWAERRQFNREMKRKQAESERPILPANQKLITLSVQDAPTKKEFVINPNGKSEVCILHEYMQRVLKVRPVYNFFECENPSEPFGASVTIDGVTYGSGTASSKKLAKNKAARATLEILIPDFVKQTSEEKPKDSEELEYFNHISIEDSRVYELTSKAGLLSPYQILHECLKRNHGMGDTSIKFEVVPGKNQKSEYVMACGKHTVRGWCKNKRVGKQLASQKILQLLHPHVKNWGSLLRMYGRESSKMVKQETSDKSVIELQQYAKKNRPNLHILSKLQEEMKRLAAEREETRKKPKMSIVASAQPGGEPLCTVDV
